According to the supplement of paper PMC10077471:
In all, about 1,900 compounds were measured (“excess over highest single agent (ExcessHSA) synergy score, 6x6 matrix”: median about -83, lowest 2% from about -370 on). This is one part of the list.

test system: NCI-H446; assay: excess over highest single agent (ExcessHSA) synergy score, 6x6 matrix; higher = less synergy (more negative = stronger synergy); conditions: 72 h; CellTiter-Glo viability

SMILES	excess over highest single agent
CN(C)CCc1c[nH]c2ccc(CS(=O)(=O)N3CCCC3)cc12 + Cc1sc2c(c1C)C(c1ccc(Cl)cc1)=N[C@@H](CC(=O)OC(C)(C)C)c1nnc(C)n1-2 [NCGC00250412-19]	-94.8
CCc1ccc(OCc2ccccc2C(=O)Nc2ccc3nc(C)cc(N)c3c2)cc1 + Cc1sc2c(c1C)C(c1ccc(Cl)cc1)=N[C@@H](CC(=O)OC(C)(C)C)c1nnc(C)n1-2 [NCGC00250412-19]	-143
O=C1C=CC[C@@H]2[C@H]3CCCN4CCC[C@@H](CN12)[C@@H]34 + Cc1sc2c(c1C)C(c1ccc(Cl)cc1)=N[C@@H](CC(=O)OC(C)(C)C)c1nnc(C)n1-2 [NCGC00250412-19]	-63.1
Cc1cnc(NC(=O)Nc2cc(Br)c(C)cc2OC[C@@H]2CNCCO2)cn1 + Cc1sc2c(c1C)C(c1ccc(Cl)cc1)=N[C@@H](CC(=O)OC(C)(C)C)c1nnc(C)n1-2 [NCGC00250412-19]	49.6
CSCC[C@H](NC(=O)[C@H](Cc1c[nH]c2ccccc12)NC(=O)CCNC(=O)OC(C)(C)C)C(=O)N[C@@H](CC(=O)O)C(=O)N[C@@H](Cc1ccccc1)C(N)=O + Cc1sc2c(c1C)C(c1ccc(Cl)cc1)=N[C@@H](CC(=O)OC(C)(C)C)c1nnc(C)n1-2 [NCGC00250412-19]	9.4
Nc1cc(C(F)(F)F)c(-c2cc(N3CCOCC3)nc(N3CCOCC3)n2)cn1 + Cc1sc2c(c1C)C(c1ccc(Cl)cc1)=N[C@@H](CC(=O)OC(C)(C)C)c1nnc(C)n1-2 [NCGC00250412-19]	-104
Cc1c(C(=O)Nc2ccc(N3C[C@@H](C)O[C@@H](C)C3)nc2)cccc1-c1ccc(OC(F)(F)F)cc1 + Cc1sc2c(c1C)C(c1ccc(Cl)cc1)=N[C@@H](CC(=O)OC(C)(C)C)c1nnc(C)n1-2 [NCGC00250412-19]	-53.8
O=c1cc(N2CCOCC2)oc2c(-c3ccccc3)cccc12 + Cc1sc2c(c1C)C(c1ccc(Cl)cc1)=N[C@@H](CC(=O)OC(C)(C)C)c1nnc(C)n1-2 [NCGC00250412-19]	83.7
COC(=O)[C@@H](N)CCCNC(=N)N[N+](=O)[O-] + Cc1sc2c(c1C)C(c1ccc(Cl)cc1)=N[C@@H](CC(=O)OC(C)(C)C)c1nnc(C)n1-2 [NCGC00250412-19]	16.4
CCc1ccc(/C=C2/SC(=S)NC2=O)cc1 + Cc1sc2c(c1C)C(c1ccc(Cl)cc1)=N[C@@H](CC(=O)OC(C)(C)C)c1nnc(C)n1-2 [NCGC00250412-19]	-178
Cc1ccc(Nc2nccc(N(C)c3ccc4c(C)n(C)nc4c3)n2)cc1S(N)(=O)=O + Cc1sc2c(c1C)C(c1ccc(Cl)cc1)=N[C@@H](CC(=O)OC(C)(C)C)c1nnc(C)n1-2 [NCGC00250412-19]	102
COc1cc(Nc2ncc3c(n2)-c2ccc(Cl)cc2C(c2c(F)cccc2OC)=NC3)ccc1C(=O)O + Cc1sc2c(c1C)C(c1ccc(Cl)cc1)=N[C@@H](CC(=O)OC(C)(C)C)c1nnc(C)n1-2 [NCGC00250412-19]	-246
COc1cc2cc(c1Cl)N(C)C(=O)C[C@H](OC(=O)C(C)C)[C@]1(C)O[C@@H]1[C@H](C)[C@@H]1C[C@@](O)(NC(=O)O1)[C@H](OC)/C=C/C=C(\C)C2 + Cc1sc2c(c1C)C(c1ccc(Cl)cc1)=N[C@@H](CC(=O)OC(C)(C)C)c1nnc(C)n1-2 [NCGC00250412-19]	-31.3
O=C(NCC1CCOCC1)c1cnc(Nc2ccc(Cl)cc2Cl)nc1C(F)(F)F + Cc1sc2c(c1C)C(c1ccc(Cl)cc1)=N[C@@H](CC(=O)OC(C)(C)C)c1nnc(C)n1-2 [NCGC00250412-19]	-98.5
CC(C)(C)c1cc(C(C)(C)C)c(NC(=O)c2c[nH]c3ccccc3c2=O)cc1O + Cc1sc2c(c1C)C(c1ccc(Cl)cc1)=N[C@@H](CC(=O)OC(C)(C)C)c1nnc(C)n1-2 [NCGC00250412-19]	-82.6
Cc1ccc([C@@H]2O[C@H](CO)[C@@H](O)[C@H](O)[C@H]2O)cc1Cc1ccc(-c2ccc(F)cc2)s1 + Cc1sc2c(c1C)C(c1ccc(Cl)cc1)=N[C@@H](CC(=O)OC(C)(C)C)c1nnc(C)n1-2 [NCGC00250412-19]	-45.9
Cn1c(CCCC(=O)O)nc2cc(N(CCCl)CCCl)ccc21 + Cc1sc2c(c1C)C(c1ccc(Cl)cc1)=N[C@@H](CC(=O)OC(C)(C)C)c1nnc(C)n1-2 [NCGC00250412-19]	14.8
CC(C)NC[C@@H](C(=O)N1CCN(c2ncnc3c2[C@H](C)C[C@H]3O)CC1)c1ccc(Cl)cc1 + Cc1sc2c(c1C)C(c1ccc(Cl)cc1)=N[C@@H](CC(=O)OC(C)(C)C)c1nnc(C)n1-2 [NCGC00250412-19]	-170
COC(=O)Nc1nc2cc(Sc3ccccc3)ccc2[nH]1 + Cc1sc2c(c1C)C(c1ccc(Cl)cc1)=N[C@@H](CC(=O)OC(C)(C)C)c1nnc(C)n1-2 [NCGC00250412-19]	-104
Cc1cc(/C=c2/sc3nc4ccccc4n3c2=O)c(C)n1-c1ccccc1 + Cc1sc2c(c1C)C(c1ccc(Cl)cc1)=N[C@@H](CC(=O)OC(C)(C)C)c1nnc(C)n1-2 [NCGC00250412-19]	-149
COCC(=O)NC/C=C/c1ccc2ncnc(Nc3ccc(Oc4ccc(C)nc4)c(C)c3)c2c1 + Cc1sc2c(c1C)C(c1ccc(Cl)cc1)=N[C@@H](CC(=O)OC(C)(C)C)c1nnc(C)n1-2 [NCGC00250412-19]	111
O=C(O)CC/C=C\CC[C@@H]1[C@@H](N2CCCCC2)[C@@H](O)C[C@@H]1OCc1ccc(-c2ccccc2)cc1 + Cc1sc2c(c1C)C(c1ccc(Cl)cc1)=N[C@@H](CC(=O)OC(C)(C)C)c1nnc(C)n1-2 [NCGC00250412-19]	-238
C=CC(=O)Nc1cccc(Sc2nc(Nc3ccc(N4CCN(C)CC4)cc3)ncc2Cl)c1 + Cc1sc2c(c1C)C(c1ccc(Cl)cc1)=N[C@@H](CC(=O)OC(C)(C)C)c1nnc(C)n1-2 [NCGC00250412-19]	-194
CCOC(=O)[C@H]1O[C@@H]1C(=O)N[C@@H](CC(C)C)C(=O)NCCC(C)C + Cc1sc2c(c1C)C(c1ccc(Cl)cc1)=N[C@@H](CC(=O)OC(C)(C)C)c1nnc(C)n1-2 [NCGC00250412-19]	-33.8

Copied from the list:
Under excess over highest single agent, Cn1c(CCCC(=O)O)nc2cc(N(CCCl)CCCl)ccc21 + Cc1sc2c(c1C)C(c1ccc(Cl)cc1)=N[C@@H](CC(=O)OC(C)(C)C)c1nnc(C)n1-2 [NCGC00250412-19] shows 14.8
Under excess over highest single agent, Cc1ccc(Nc2nccc(N(C)c3ccc4c(C)n(C)nc4c3)n2)cc1S(N)(=O)=O + Cc1sc2c(c1C)C(c1ccc(Cl)cc1)=N[C@@H](CC(=O)OC(C)(C)C)c1nnc(C)n1-2 [NCGC00250412-19] shows 102
